We go through two molecules from US7468449B2, “Phenyl-furan compounds as vitamin D receptor modulators” (Eli Lilly and Company, priority 2003, dated 2008).

In this assay the test system is rat osteocalcin promoter. As to the kind of experiment: OCN (osteocalcin) promoter assay. The format is cell-based. As to conditions: read-out: OCN Promoter EC50; RG-15 (ROS 17/2.8) cells, 48 hr treatment; Table 1.

The structures appear in SMILES notation. For part of its entries the source gives two or more results. The list is limited to them. There may be further records. Values given together appear to be repeats on other runs, samples or individuals.

`CCCc1cc(C(CC)(CC)c2ccc(C(=O)N(C)C)o2)ccc1OCC(O)C(C)(C)C` (single isomer, unassigned): the concentration giving a half-maximal response (EC50) was 0.5 nM and 0.1 nM. Under `CCc1cc(C(CC)(CC)c2ccc(C(=O)N(C)C)o2)ccc1OCC(O)C(C)(C)C` (single isomer, unassigned) stands 1.6 nM and 0.5 nM.
